Assay results from the supplement of paper PMC10849652.
Some of the results follow.

The chains behind the UniProt entries cited, without tags or fusion partners. Where a name states a change or a piece, a line headed by the entry shows the natural chain unless it says otherwise.
UniProt Q15843, whole entry, looked up: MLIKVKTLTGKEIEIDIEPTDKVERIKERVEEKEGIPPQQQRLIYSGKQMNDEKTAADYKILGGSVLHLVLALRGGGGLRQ
UniProt Q9BYG3: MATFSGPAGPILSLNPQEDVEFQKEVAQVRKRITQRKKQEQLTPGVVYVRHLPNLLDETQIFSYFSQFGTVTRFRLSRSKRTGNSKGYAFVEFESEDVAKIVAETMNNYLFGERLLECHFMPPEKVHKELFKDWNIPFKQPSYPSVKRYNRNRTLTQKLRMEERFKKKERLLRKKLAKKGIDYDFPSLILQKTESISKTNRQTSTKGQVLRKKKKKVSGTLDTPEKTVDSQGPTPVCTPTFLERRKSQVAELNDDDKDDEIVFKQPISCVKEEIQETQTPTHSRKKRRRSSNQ
UniProt Q9UMS0: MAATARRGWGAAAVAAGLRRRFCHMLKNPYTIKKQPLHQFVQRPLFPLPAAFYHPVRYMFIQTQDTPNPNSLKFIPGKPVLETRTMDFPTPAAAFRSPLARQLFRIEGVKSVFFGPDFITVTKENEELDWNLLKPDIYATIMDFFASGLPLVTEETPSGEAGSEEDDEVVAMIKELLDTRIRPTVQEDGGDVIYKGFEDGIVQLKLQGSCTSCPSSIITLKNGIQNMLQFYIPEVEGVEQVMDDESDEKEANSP
UniProt Q8NHV4, whole entry, looked up: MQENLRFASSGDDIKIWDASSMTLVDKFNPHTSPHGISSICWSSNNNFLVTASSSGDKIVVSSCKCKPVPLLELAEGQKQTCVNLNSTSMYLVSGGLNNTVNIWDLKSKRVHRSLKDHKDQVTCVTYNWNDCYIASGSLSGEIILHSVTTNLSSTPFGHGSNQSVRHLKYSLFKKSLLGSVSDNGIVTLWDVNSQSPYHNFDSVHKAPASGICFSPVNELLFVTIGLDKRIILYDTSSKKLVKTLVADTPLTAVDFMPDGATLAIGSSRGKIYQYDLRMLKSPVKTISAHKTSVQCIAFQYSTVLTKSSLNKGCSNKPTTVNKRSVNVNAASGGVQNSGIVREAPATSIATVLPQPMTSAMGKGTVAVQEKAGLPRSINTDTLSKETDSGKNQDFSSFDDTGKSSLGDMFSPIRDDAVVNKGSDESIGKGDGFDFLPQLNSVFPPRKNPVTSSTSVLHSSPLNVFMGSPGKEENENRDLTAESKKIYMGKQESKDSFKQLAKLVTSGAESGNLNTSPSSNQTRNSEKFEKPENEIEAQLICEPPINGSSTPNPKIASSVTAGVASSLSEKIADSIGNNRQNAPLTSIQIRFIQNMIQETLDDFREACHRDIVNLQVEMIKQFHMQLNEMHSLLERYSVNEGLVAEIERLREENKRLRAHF
UniProt Q9NX02: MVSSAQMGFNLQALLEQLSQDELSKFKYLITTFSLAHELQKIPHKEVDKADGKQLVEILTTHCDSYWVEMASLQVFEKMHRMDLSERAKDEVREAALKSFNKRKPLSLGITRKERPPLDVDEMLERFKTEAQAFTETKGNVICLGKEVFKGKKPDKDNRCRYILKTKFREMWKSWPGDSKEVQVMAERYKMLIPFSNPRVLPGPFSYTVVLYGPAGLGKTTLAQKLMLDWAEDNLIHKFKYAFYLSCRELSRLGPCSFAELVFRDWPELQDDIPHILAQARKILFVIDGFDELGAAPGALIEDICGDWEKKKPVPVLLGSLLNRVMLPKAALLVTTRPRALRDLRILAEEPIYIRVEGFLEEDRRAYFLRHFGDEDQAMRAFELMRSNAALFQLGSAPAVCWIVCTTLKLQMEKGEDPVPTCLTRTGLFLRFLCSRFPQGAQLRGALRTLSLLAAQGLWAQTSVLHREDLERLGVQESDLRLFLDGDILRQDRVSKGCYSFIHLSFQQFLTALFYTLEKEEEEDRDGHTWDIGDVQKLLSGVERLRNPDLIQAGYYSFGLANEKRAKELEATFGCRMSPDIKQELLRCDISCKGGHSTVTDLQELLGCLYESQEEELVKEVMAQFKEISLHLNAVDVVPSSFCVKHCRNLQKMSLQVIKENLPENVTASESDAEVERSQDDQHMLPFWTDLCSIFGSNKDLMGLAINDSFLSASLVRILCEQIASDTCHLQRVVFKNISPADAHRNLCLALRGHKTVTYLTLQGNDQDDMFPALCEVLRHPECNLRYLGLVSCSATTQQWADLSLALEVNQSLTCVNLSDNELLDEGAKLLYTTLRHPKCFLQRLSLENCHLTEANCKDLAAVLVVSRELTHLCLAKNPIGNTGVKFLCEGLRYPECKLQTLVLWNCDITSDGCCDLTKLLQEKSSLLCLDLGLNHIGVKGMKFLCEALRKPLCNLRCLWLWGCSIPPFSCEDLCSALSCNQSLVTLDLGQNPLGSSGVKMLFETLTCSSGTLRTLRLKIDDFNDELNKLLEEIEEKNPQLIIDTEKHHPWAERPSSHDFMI
UniProt Q9UGV2: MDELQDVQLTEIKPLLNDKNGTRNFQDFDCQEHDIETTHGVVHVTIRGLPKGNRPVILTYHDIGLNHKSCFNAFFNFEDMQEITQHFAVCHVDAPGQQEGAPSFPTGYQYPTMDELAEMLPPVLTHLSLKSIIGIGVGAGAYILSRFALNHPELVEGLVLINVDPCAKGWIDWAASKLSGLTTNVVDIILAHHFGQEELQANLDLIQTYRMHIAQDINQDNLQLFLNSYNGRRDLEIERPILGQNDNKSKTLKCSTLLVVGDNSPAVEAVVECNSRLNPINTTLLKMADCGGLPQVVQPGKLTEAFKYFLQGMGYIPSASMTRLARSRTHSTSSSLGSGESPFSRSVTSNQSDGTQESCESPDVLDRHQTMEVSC
UniProt O00221: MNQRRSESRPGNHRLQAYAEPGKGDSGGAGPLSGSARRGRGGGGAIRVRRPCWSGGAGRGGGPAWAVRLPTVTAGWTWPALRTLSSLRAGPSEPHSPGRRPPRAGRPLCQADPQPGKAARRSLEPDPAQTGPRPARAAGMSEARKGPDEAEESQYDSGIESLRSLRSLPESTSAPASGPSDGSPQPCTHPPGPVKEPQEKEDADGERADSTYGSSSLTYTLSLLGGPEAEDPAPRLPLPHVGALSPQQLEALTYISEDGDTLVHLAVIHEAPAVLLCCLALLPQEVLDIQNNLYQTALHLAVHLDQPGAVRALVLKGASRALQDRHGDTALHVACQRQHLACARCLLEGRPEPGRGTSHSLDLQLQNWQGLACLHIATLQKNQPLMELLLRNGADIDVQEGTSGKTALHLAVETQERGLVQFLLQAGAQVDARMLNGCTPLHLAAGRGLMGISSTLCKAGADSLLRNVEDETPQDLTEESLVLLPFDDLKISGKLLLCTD
UniProt Q86Y39, whole entry, looked up: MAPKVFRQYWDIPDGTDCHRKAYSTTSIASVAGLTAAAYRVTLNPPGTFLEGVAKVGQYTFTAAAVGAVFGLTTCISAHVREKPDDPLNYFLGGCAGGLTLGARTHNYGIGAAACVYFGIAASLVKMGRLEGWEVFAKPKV
UniProt Q9Y697: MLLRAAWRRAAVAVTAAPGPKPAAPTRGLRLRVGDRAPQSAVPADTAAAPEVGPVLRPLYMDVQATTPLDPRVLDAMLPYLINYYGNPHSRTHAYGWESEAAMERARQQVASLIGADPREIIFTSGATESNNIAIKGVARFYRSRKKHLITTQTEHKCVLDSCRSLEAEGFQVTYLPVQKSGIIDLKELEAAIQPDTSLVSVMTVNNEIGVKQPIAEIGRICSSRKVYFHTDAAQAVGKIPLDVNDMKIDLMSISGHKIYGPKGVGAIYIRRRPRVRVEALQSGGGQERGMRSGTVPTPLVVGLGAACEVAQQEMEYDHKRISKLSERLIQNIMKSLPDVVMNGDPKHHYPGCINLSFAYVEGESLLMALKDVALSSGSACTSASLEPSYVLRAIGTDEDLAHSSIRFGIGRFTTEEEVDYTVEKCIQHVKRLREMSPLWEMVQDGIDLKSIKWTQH
UniProt O95182, whole entry, looked up: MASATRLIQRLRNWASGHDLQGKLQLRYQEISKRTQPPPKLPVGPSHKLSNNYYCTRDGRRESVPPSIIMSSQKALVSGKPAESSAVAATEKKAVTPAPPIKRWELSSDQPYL
UniProt Q9NX24: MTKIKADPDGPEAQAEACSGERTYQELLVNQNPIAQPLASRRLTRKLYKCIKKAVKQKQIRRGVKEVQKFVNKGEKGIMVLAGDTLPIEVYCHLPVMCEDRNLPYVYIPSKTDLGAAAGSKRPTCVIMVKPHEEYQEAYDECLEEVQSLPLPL
UniProt O94916: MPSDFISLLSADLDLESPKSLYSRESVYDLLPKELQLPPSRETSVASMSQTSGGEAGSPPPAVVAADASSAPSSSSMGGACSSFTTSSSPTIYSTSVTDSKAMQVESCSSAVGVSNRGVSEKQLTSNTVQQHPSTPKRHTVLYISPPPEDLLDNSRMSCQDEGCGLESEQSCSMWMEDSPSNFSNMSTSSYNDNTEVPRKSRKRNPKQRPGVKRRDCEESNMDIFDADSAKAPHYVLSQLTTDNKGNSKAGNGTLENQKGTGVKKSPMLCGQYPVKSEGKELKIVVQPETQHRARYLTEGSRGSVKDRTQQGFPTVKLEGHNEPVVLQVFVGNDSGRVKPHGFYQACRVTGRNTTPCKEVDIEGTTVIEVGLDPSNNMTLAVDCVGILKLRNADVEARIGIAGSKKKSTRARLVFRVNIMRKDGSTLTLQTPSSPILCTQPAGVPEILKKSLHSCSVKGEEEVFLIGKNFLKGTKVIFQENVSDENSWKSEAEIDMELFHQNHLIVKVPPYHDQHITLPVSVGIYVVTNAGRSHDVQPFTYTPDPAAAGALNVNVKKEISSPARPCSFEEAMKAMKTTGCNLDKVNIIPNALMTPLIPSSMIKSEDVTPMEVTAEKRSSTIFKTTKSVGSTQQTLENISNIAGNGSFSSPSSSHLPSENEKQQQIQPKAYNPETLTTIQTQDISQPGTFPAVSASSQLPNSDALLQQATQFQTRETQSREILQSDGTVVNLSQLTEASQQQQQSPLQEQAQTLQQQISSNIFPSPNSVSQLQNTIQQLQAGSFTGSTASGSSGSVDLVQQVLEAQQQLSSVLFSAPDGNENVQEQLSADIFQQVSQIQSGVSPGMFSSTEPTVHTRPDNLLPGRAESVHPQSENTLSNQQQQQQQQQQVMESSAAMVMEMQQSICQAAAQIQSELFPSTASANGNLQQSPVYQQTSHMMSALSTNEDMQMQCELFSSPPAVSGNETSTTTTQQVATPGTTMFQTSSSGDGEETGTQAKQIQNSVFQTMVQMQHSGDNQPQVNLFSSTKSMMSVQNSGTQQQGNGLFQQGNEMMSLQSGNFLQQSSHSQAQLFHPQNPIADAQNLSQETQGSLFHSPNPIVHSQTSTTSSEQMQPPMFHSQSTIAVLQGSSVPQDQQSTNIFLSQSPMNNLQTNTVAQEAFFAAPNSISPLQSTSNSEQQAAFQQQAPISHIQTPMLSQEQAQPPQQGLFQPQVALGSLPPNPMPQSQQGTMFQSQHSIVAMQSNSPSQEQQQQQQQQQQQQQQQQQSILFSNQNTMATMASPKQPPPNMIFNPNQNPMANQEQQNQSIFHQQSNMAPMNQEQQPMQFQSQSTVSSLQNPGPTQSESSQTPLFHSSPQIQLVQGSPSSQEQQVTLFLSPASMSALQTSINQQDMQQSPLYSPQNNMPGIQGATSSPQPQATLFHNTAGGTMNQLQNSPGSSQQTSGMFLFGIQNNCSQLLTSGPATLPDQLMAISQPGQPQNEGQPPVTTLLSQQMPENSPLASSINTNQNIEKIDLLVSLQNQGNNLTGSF
UniProt P56556, whole entry, looked up: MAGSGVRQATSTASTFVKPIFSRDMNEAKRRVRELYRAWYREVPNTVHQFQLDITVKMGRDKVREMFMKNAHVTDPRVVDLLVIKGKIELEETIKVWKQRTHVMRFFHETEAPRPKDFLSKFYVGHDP
UniProt O75251, whole entry, looked up: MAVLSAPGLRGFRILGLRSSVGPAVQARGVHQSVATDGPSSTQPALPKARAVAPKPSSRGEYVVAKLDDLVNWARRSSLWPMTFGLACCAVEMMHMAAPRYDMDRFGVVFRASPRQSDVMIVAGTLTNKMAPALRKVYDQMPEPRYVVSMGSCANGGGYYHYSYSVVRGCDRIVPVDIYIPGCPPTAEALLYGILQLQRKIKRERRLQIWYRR
UniProt Q8TDX7: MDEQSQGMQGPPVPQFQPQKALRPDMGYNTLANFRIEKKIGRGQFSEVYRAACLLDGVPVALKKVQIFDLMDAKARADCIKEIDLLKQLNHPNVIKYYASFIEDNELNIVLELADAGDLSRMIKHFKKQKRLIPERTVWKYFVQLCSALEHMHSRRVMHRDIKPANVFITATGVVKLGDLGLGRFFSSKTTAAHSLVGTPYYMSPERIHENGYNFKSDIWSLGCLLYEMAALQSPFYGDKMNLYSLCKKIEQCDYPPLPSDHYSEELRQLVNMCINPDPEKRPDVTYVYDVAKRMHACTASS
UniProt Q9NYR9: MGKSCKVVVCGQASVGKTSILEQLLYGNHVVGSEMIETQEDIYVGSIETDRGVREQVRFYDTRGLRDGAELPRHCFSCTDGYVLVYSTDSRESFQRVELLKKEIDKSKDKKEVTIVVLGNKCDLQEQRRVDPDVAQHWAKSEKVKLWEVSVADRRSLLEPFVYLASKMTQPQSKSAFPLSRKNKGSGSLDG

Compound: NC(=O)Nc1cc(-c2cccc(F)c2)sc1C(=O)N[C@H]1CCCNC1
Assay: log2 fold change, soluble protein after heating vs DMSO (PISA); higher = thermal stabilisation; K562 lysate, 10 uM; active = over 0.2 and 3.5 SD of the protein, either way, in both replicates (recomputed)
Method in brief: (§1)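 K562 pellets were dounce-homogenised in PBS pH 7.4 with 1 mM MgCl2, and the crude extract at 1 mg/mL protein was treated with 10 μM compound for 30 min. Aliquots were heated for 3 min across 48°C-58°C, pooled, and brought to 0.5% NP-40 at 4°C; soluble protein was the supernatant after 21,000xg for 90 min. Soluble protein was quantified by TMTpro 16plex LC-MS/MS with channel sums equalised, and reported as log2 fold change in thermal stability against DMSO controls, with values from duplicates.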

log2 fold change, inactive:
NIPSNAP3A (UniProt Q9UFN0) 0.007
NEDD8 (UniProt Q15843) -0.038
NDUFAF4 (UniProt Q9P032) 0.032
NDUFV1 (UniProt P49821) -0.006
NEU1 (UniProt Q99519) -0.014
NDRG2 (UniProt Q9UN36) -0.02
NDUFAB1 (UniProt O14561) -0.04
NIFK (UniProt Q9BYG3) 0.037
NFU1 (UniProt Q9UMS0) -0.012
NDC80 (UniProt O14777) -0.002
NEDD1 isoform 3 (UniProt Q8NHV4) 0
NIP7 (UniProt Q9Y221) 0.021
NIT1 (UniProt Q86X76) 0.023
NDUFA10 (UniProt O95299) 0.023
NFIC (UniProt P08651) 0.029
NLRP2 (UniProt Q9NX02) 0.013
NEDD4 isoform 4 (UniProt P46934) 0.014
NDRG3 (UniProt Q9UGV2) -0.009
NFKBIE (UniProt O00221) 0.025
NEPRO (UniProt Q6NW34) 0.07
NDUFA11 (UniProt Q86Y39) 0
NGLY1 (UniProt Q96IV0) 0.041
NFS1 (UniProt Q9Y697) 0.026
NDUFA7 (UniProt O95182) 0.027
NFATC4 isoform 2 (UniProt Q14934) 0.01
NHP2 (UniProt Q9NX24) -0.063
NFATC3 (UniProt Q12968) 0.04
NFAT5 isoform 5 (UniProt O94916) 0.031
NGRN (UniProt Q9NPE2) -0.013
NDUFA6 (UniProt P56556) -0.014
NF2 (UniProt P35240) 0.002
NELFB isoform 2 (UniProt Q8WX92) 0
NDUFS7 (UniProt O75251) -0.062
NFX1 (UniProt Q12986) 0.009
NDUFB9 (UniProt Q9Y6M9) -0.015
NDUFB8 (UniProt O95169) -0.034
NF1 (UniProt P21359) 0.041
NIPSNAP2 (UniProt O75323) 0.026
NEK7 (UniProt Q8TDX7) 0.033
NKIRAS2 (UniProt Q9NYR9) 0.071

Compound: NC(=O)c1cnc(N[C@@H]2CCCC[C@@H]2N)nc1Nc1cccc(-n2nccn2)c1
Assay: as above
Method in brief: as §1

log2 fold change, inactive:
NIPSNAP3A (UniProt Q9UFN0) -0.052
NEDD8 (UniProt Q15843) -0.057
NDUFAF4 (UniProt Q9P032) 0.005
NDUFV1 (UniProt P49821) -0.011
NEU1 (UniProt Q99519) -0.02
NDRG2 (UniProt Q9UN36) 0
NDUFAB1 (UniProt O14561) -0.065
NIFK (UniProt Q9BYG3) -0.016
NFU1 (UniProt Q9UMS0) -0.003
NDC80 (UniProt O14777) 0.007
NEDD1 isoform 3 (UniProt Q8NHV4) -0.013
NIP7 (UniProt Q9Y221) -0.006
NIT1 (UniProt Q86X76) -0.007
NDUFA10 (UniProt O95299) 0.183
NFIC (UniProt P08651) 0.098
NLRP2 (UniProt Q9NX02) 0.003
NEDD4 isoform 4 (UniProt P46934) 0.003
NDRG3 (UniProt Q9UGV2) -0.005
NFKBIE (UniProt O00221) 0.061
NEPRO (UniProt Q6NW34) -0.105
NDUFA11 (UniProt Q86Y39) -0.047
NGLY1 (UniProt Q96IV0) -0.005
NFS1 (UniProt Q9Y697) 0.017
NDUFA7 (UniProt O95182) -0.047
NFATC4 isoform 2 (UniProt Q14934) -0.017
NHP2 (UniProt Q9NX24) 0.043
NFATC3 (UniProt Q12968) 0.027
NFAT5 isoform 5 (UniProt O94916) 0.018
NGRN (UniProt Q9NPE2) 0.058
NDUFA6 (UniProt P56556) 0.014
NF2 (UniProt P35240) 0.054
NELFB isoform 2 (UniProt Q8WX92) 0.005
NDUFS7 (UniProt O75251) 0.026
NFX1 (UniProt Q12986) 0.028
NDUFB9 (UniProt Q9Y6M9) 0.012
NDUFB8 (UniProt O95169) -0.012
NF1 (UniProt P21359) 0.016
NIPSNAP2 (UniProt O75323) 0.009
NEK7 (UniProt Q8TDX7) 0.018
NKIRAS2 (UniProt Q9NYR9) 0.003
